Mtb growth Cornell: 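Whole-cell assay for inhibitors of Mycobacterium tuberculosis growth, labelled Cornell in the record; the read-out is not stated. The concentration is filed as 10 mM, unlikely as a test dose, so the dose is not known. Higher means stronger inhibition (inferred from two other growth screens of the library). About 53,000 compounds were tested under these conditions; 1.7% (about 900) showed 50% or more at least once.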
Mtb heat-shock: 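Assay on Mycobacterium tuberculosis, filed only as a heat shock assay from Cornell; the read-out is not stated. The concentration is filed as 10 mM, unlikely as a test dose, so the dose is not known. Higher reads as stronger inhibition (inferred: compounds with an IC50 in retests scored well above the rest). Size under these conditions: about 69,000 compounds, about 930 of them at 50% or above in at least one test.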

The filed quantity is “Percent Effect” (%).
The controls that fix the scale are not given in the record; negative values are as filed.
The compounds are a random part of those screened.
A dash means the value is not listed here; it may have been measured.

structure,Mtb growth Cornell,Mtb heat-shock
CCn1ccc(NC(=O)CN2C(=O)CC(C)(C)c3ccccc32)n1,18.27,2.312
NCc1cc(NCC(c2ccccn2)N2CCOCC2)ncn1 (centres unmarked),4.879,14.55
CCC(=O)N1CCCN(c2cncc(-n3nc(C)cc3C)n2)CC1,-1.409,-23.15
CN(c1cccnc1N1CCCC1)S(=O)(=O)c1cnn(C)c1,-,-16.98
[H][C@@]12CN(C)CCO[C@]1([H])CN(Cc1nc(C)cs1)C2,0.6887,17.51
CN1C(=O)CCCC12CCCN(Cc1nccs1)C2.O=C(O)C(F)(F)F (centres unmarked),-2.217,-33.87
Cc1ncsc1C(=O)NC1CCN(c2ncccc2C#N)CC1,-,-11.52
CC(C)(C)c1cc(C(=O)N2CCC(c3cnccn3)CC2)[nH]n1,-0.4158,-6.123
N#Cc1cccnc1NC1CCN(c2ccccc2OC(F)F)C1=O (centres unmarked),-59.77,-22.44
O=C(c1cc[nH]n1)N1CCc2cc(Br)sc2C1,6.305,-48.2
CN1CCN(C2CCN(CC(O)c3ccccc3F)CC2)C1=O (centres unmarked),-14.3,-17.21
O=C1CCCCN1CCCNCc1cnc(C2CCC2)s1,4.16,-13.33
COc1ccc(-c2cnc(N(C)C)nc2C2CN(C(C)=O)CCO2)cc1 (centres unmarked),-6.563,-13.8
N#Cc1c[nH]c(C(=O)N(Cc2ccc(O)cc2)CC2CC2)c1,33.78,14.02
O=c1[nH]c(-c2ccncc2)ncc1-c1ccnc(NC2CCCCC2)n1,-53.49,-29.11
O=C(CSc1ccc(Br)cc1)NS(=O)(=O)c1ccc2c(c1)OCCO2,-,-2.28
CCN1CC2(CC1=O)CN(C(C)=O)CCN(C(=O)NC(C)C)C2 (centres unmarked),-8.719,27.48
COCCNc1nc2c(c(NCc3cnc(C)c(C)c3)n1)CCNCC2,8.88,9.071
CC(=O)NCCNC(=O)NCCCc1cccc(F)c1,4.598,9.496
O=C(O)C(F)(F)F.O=C(O)C(F)(F)F.O=C(O)C(F)(F)F.O=C(O)C(F)(F)F.[H][C@@]12CCCO[C@]1([H])[C@H](N(C)Cc1cccnc1)CN2Cc1nccn1C,28.66,-34.64
COc1ccccc1CC(=O)NC(CC(=O)O)c1ccc(F)cc1 (centres unmarked),-,15.12
CNC(=O)C1CN(C)CCN(CCCOc2ccccc2F)C1 (centres unmarked),-32.75,-3.621
CC1CCN(C(=O)C(C)Oc2ccc3c(c2)OCO3)CC1 (centres unmarked),19.72,14.1
O=C(O)CCn1nc(C(F)(F)F)c(Cl)c1C1CC1,12.94,-1.605
[H][C@@]12CS(=O)(=O)C[C@]1([H])N(Cc1cccc(O)c1)CCN2CC1CC1,-8.005,-23.8
CCCOc1ccc(Cl)cc1C(=O)N1CCC(n2cncn2)CC1,-8.806,-2.665
CCN1CCN(c2nc(C(C)C)nc3c(C)nn(CC)c23)CC1,-8.652,-34.72
[H][C@@]12CCCN1C[C@@H](Cc1ccccc1)N(Cc1cnn(C=C)c1C)C2,-26.34,-26.5
CC1CCN(C(=O)c2ccc(N(C)Cc3cnn(C)c3)nc2)CC1,32.39,5.097
COCc1cc(CC2(NC3CCN(C)CC3)COC2)no1,-9.131,-27.99
CCN(CC)C(=O)c1nc2c(s1)CCN(C(=O)CCC(=O)OC)CC2,26.64,-20.82
COCc1cncc2c1CCN(C(=O)c1ccc(C)o1)C2,5.15,1.916
O=C(O)C(F)(F)F.O=C(O)C(F)(F)F.[H][C@@]12CCN(Cc3cccc(C)n3)[C@@]1([H])CCN2C(=O)Cc1cccs1,14.31,17.04
CC(Cn1cccn1)NC(=O)NCCCN1CCc2ccccc2C1 (centres unmarked),-24.98,-0.1466
O=C(c1cc(F)ccc1O)N1CCN(C(=O)C2CCC2)CC1,22.06,-16.23
CS(=O)(=O)c1ccc(CN2CCCC3(C2)C(=O)Nc2ccccc23)cc1 (centres unmarked),-20.81,-5.395
O=C(c1n[nH]cc1Cl)N1CCOCC1,15.84,7.877
Cc1nc(-c2ccsc2)ccc1C(=O)NCCC1CCCO1 (centres unmarked),-,-11.14
COc1cc(CNC(=O)NCc2c(C)cc(C)[nH]c2=O)ccc1C,-,3.326
CCc1csc(NC(=O)Nc2c(C)n[nH]c2C)n1,19.96,-1.189
CC(CO)N(C)C(=O)c1cn(-c2ccc(Br)cc2)cn1 (centres unmarked),-,7.747
Cc1cc(CC(=O)NCC(O)COc2ccc(F)c(F)c2)no1 (centres unmarked),22.32,8.469
CC1CCCN(CCCNC(=O)c2ccc(N(C)S(C)(=O)=O)cc2Cl)C1 (centres unmarked),3.804,-0.3152
CC(C)Cc1cc(C(=O)NC(C)C)[nH]n1,21.44,20.79
CCS(=O)(=O)Nc1cnn(Cc2cccc(C)c2)c1,56.26,-6.735
Cc1cc(F)c(S(=O)(=O)Nc2ccn(CCCC#N)n2)cc1F,16.53,0.5835
CCS(=O)(=O)c1ncc(CN2CCCC2)n1CCc1ccccc1,7.707,-9.375
C[C@@H]1CN(c2ccc(Cl)cn2)C[C@@]1(O)C1CC1,16.38,14.39
[H][C@@]12CC[C@H](Oc3cccc(F)c3)[C@]1([H])CN(C(=O)c1cccc(C)n1)C2,10.28,7.925
CC(=O)N[C@@H]1Cc2ccccc2[C@H]1Nc1cc(C2CC2)ncn1,-5.125,6.759
CC(=O)c1cccc(NC(=O)N2CCCCC2CN2CCCC2=O)c1 (centres unmarked),-,8.228
CC(C)CNC(=O)c1c(-n2cnnn2)sc2c1CCCC2,22.31,14.83
CCS(=O)(=O)c1ncc(CN2CCSCC2)n1CCc1ccccc1,5.39,5.475
Cc1ncsc1C(=O)N1CC(C)Sc2ccccc21 (centres unmarked),-,-3.831
CS(=O)(=O)NCC(=O)N1CCCC1c1noc(C2CC2)n1 (centres unmarked),11.78,-1.543
CN(C(=O)[C@H]1CSCN1C(=O)OC(C)(C)C)C1CC1,-5.405,-16.31
CCOc1ncccc1C(=O)N1CC=C(c2ccc(O)cc2)CC1,38.64,-1.216
O=C(CCc1ccc(-n2cnnn2)cc1)Nc1ccncc1,11.57,-18.27
O=C(O)C(F)(F)F.[H][C@@]12CN(CC3CC3)C[C@]1([H])[C@@H](OC)CCN2C(=O)c1ccsc1,21.88,-4.831
CNCc1ccc([C@@H]2CN(C(C)=O)C[C@H]2C(N)=O)cc1.Cl,-6.134,-1.336
O=C(O)C(F)(F)F.O=C(O)C(F)(F)F.O[C@H]1CCN(CC2CC2)[C@H]1Cc1ccncc1,-1.791,3.043
O=C(CN1CCN(C(=O)c2sccc2C2CC2)CC1)NC1CC1,-21.58,-26.94
O=C(O)C(F)(F)F.[H][C@@]12COC[C@]1(CNC(=O)c1cscn1)CN(Cc1nccs1)C2,-2.748,1.78
CN(CC(N)=O)Cc1c(Cl)ccc2cccnc12,-10.3,-12.46
CC(=O)N1CCC(c2noc(C3CCC(=O)N3)n2)CC1 (centres unmarked),5.586,-16.19
CCc1nc(CCNC(=O)Nc2ccc(C(=O)NC)cc2C)cs1,5.061,4.012
CN1CCN(c2cc(N3CCCC3CO)ncn2)Cc2ccccc21 (centres unmarked),-16.34,-11.56
CNc1cc(C2CCCN(C(=O)c3ccc(=O)[nH]n3)C2)ccn1 (centres unmarked),1.425,4.886
Oc1cc(C2CCCCN2C2CCCC2)nc(-c2cccnc2)n1 (centres unmarked),14.3,15.43
CCc1noc(C2CCCCN2C(=O)c2ccc(C)o2)n1 (centres unmarked),-,1.237
O=C(O)C(F)(F)F.[H][C@@]12CN(C(=O)c3ccsc3)C[C@]1([H])C(=O)N(Cc1cccnc1)C2,-10.93,-33.76
Cc1nn(C)c(N2CCOCC2)c1CNCc1ccc(CO)c(F)c1,-,-1.2
Cc1ccc(-c2nc(CN3CCCC(Cn4cncn4)C3)no2)cc1 (centres unmarked),-8.87,13.17
Cc1ccccc1-n1cnnc1SCC1CCCCO1 (centres unmarked),16.53,21.89
O=C(NCc1nncn1C1CCCCC1)C1CNCCO1 (centres unmarked),13.08,-20.29
CCN1CCC2(CN(C(=O)N(C)C)CC23CCNCC3)C1=O.O=C(O)C(F)(F)F (centres unmarked),-,5.536
Cn1cc(CN2CCc3ncn(C)c3C2COCc2ccccc2)cn1 (centres unmarked),-2.839,-16.36
CC(=O)N1CCN(CC(C)(O)c2cccc(C(F)(F)F)c2)CC1 (centres unmarked),-,-5.662
Cc1ccc(C(=O)N2CCN(CCC(C)(C)C)CC2)c(=O)[nH]1,3.441,-0.8736
CS(=O)(=O)N1CCC2(CCN(C(=O)c3cccnc3)CC2)C1.O=C(O)C(F)(F)F,12.05,-48.15
CN(C)C(C)(C)CNCc1cn(C)nc1-c1cccnc1.Cl,-,-27.04

Repeated from the top, 7 entries:

{"structure": "CCn1ccc(NC(=O)CN2C(=O)CC(C)(C)c3ccccc32)n1", "Mtb growth Cornell": 18.27, "Mtb heat-shock": 2.312}
{"structure": "NCc1cc(NCC(c2ccccn2)N2CCOCC2)ncn1", "stereo": "centres unmarked", "Mtb growth Cornell": 4.879, "Mtb heat-shock": 14.55}
{"structure": "CCC(=O)N1CCCN(c2cncc(-n3nc(C)cc3C)n2)CC1", "Mtb growth Cornell": -1.409, "Mtb heat-shock": -23.15}
{"structure": "CN(c1cccnc1N1CCCC1)S(=O)(=O)c1cnn(C)c1", "Mtb heat-shock": -16.98}
{"structure": "[H][C@@]12CN(C)CCO[C@]1([H])CN(Cc1nc(C)cs1)C2", "Mtb growth Cornell": 0.6887, "Mtb heat-shock": 17.51}
{"structure": "CN1C(=O)CCCC12CCCN(Cc1nccs1)C2.O=C(O)C(F)(F)F", "stereo": "centres unmarked", "Mtb growth Cornell": -2.217, "Mtb heat-shock": -33.87}
{"structure": "Cc1ncsc1C(=O)NC1CCN(c2ncccc2C#N)CC1", "Mtb heat-shock": -11.52}

Source: ChEMBL document CHEMBL3988442, “University of Dundee, Small-Polar-MMV Screening Library” (2021).